Measured values reported in patent US20230047313A1, “TREATING HEART DISEASE IN MUSCULAR DYSTROPHY PATIENTS” (Children`s Medical Center Corporation, priority 2019, published 2023).
Results are given in words; binding and its absence hold for the method and conditions named. Binding seen in cells or lysates may run through a third protein. For some of these results: A result given as binding can be weak or reduced; the word gives no strength. Where a sequence is shown, tags or fusion partners need not be part of it.

Experiments:
[1] = molecular target: Flag-tagged C-terminal of dystrophin (DMD-C); test: co-immunoprecipitation (FIG. 5B: Myc-tagged CIP with Flag-tagged DMD-C); the sentence says 'dystrophin'
Flag-tagged Lmo7 = test: co-immunoprecipitation, tagged proteins in transfected HEK293 cells (FIG. 5B)
[2] = molecular target: Flag-tagged N-terminal of dystrophin (DMD-N); test: as above
[3] = molecular target: Flag-tagged C-terminal of dystrophin (DMD-C); test: as above
Flag-tagged CnA [4] = test: co-immunoprecipitation (FIG. 5C: Myc-tagged CIP with Flag-tagged CnA)
Flag-tagged CIB1 = test: co-immunoprecipitation, tagged proteins in transfected HEK293 cells (FIG. 5C)
Flag-tagged CnA [5] = test: as above

binding [1]: binds
binding (Flag-tagged Lmo7): binds
binding [2]: no binding
binding [3]: binds
binding (Flag-tagged CnA [4]): binds
binding (Flag-tagged CIB1): no binding
binding (Flag-tagged CnA [5]): binds
B1: Myc-tagged CIP (protein, UniProt Q5FW52-1 1-269, looked up, not shown: small tags and cut ends)
chain: MEFGKHEPGSSLKRNKNLEEGVTFEYSDHMTFSSESKQERVQRILDYPSEVSGRNSQQKEFNTKEPQGMQKGDLFKAEYVFIVDSDGEDEATCRQGEQGPPGGPGNIATRPKSLAISSSLASDVVRPKVRGADLKTSSHPEIPHGIAPQQKHGLALDEPARTESNSKASVLDLPVEHSSDSPSRPPQTMLGSETIKTPTTHPRAAGRETKYANLSSSSSTASESQLTKPGVIRPVPVKSKLLLRKDEEVYEPNPFSKYLEDNSGLFSEQ
